Measurements reported in the supplement of paper PMC8728848.
The list shows a part of the results.

How the values were obtained:
Assay in all cases: glycan array binding signal (z-score within array); higher = stronger binding
Conditions in all cases: glycan notation: IUPAC condensed, linker removed
[1] = target: Neu5Ac(a2-3)Gal(b1-4)GlcNAc(b1-3)Gal(b1-4)GlcNAc(b1-3)Gal(b1-4)GlcNAc
How it was run: (§1)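 The Consortium for Functional Glycomics database supplied 3228 glycan arrays, of which those lacking an available protein sequence were dropped. The binding signal, a within-array Z-score, was averaged across arrays of the same protein sequence and across linkers. Negative scores can be read as non-binding.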

[2] = target: Neu5Ac(a2-3)Gal(b1-4)GlcNAc(b1-3)Gal(b1-4)GlcNAc(b1-3)Gal(b1-4)GlcNAc(b1-2)Man(a1-3)[Neu5Ac(a2-3)Gal(b1-4)GlcNAc(b1-3)Gal(b1-4)GlcNAc(b1-3)Gal(b1-4)GlcNAc(b1-2)Man(a1-6)]GalNAc
How it was run: as §1

[3] = target: Neu5Ac(a2-3)Gal(b1-4)GlcNAc(b1-3)Gal(b1-4)GlcNAc(b1-3)GalNAc
How it was run: as §1

[4] = target: Neu5Ac(a2-3)Gal(b1-4)GlcNAc(b1-3)Gal(b1-4)GlcNAc(b1-3)[Neu5Ac(a2-3)Gal(b1-4)GlcNAc(b1-3)Gal(b1-4)GlcNAc(b1-6)]GalNAc
How it was run: as §1

[5] = target: Neu5Ac(a2-3)Gal(b1-4)GlcNAc(b1-3)Gal(b1-4)GlcNAc(b1-6)[Gal(b1-3)]GalNAc
How it was run: as §1

[6] = target: Neu5Ac(a2-3)Gal(b1-4)GlcNAc(b1-3)Gal(b1-4)[Fuc(a1-3)]GlcNAc
How it was run: as §1

[7] = target: Neu5Ac(a2-3)Gal(b1-4)GlcNAc(b1-3)GalNAc
How it was run: as §1

[8] = target: Neu5Ac(a2-3)Gal(b1-4)GlcNAc(b1-3)[Neu5Ac(a2-3)Gal(b1-4)GlcNAc(b1-6)]GalNAc
How it was run: as §1

[9] = target: Neu5Ac(a2-3)Gal(b1-4)GlcNAc(b1-6)GalNAc
How it was run: as §1

[10] = target: Neu5Ac(a2-3)Gal(b1-4)GlcNAc(b1-6)[Gal(b1-3)]GalNAc
How it was run: as §1

[11] = target: Neu5Ac(a2-3)Gal(b1-4)GlcNAc(b1-6)[Neu5Ac(a2-3)Gal(b1-3)]GalNAc
How it was run: as §1

[12] = target: Neu5Ac(a2-3)Gal(b1-4)GlcNAc6S
How it was run: as §1

[13] = target: Neu5Ac(a2-3)Gal(b1-4)[Fuc(a1-3)]GlcNAc
How it was run: as §1

[14] = target: Neu5Ac(a2-3)Gal(b1-4)[Fuc(a1-3)]GlcNAc(b1-2)Man
How it was run: as §1

[15] = target: Neu5Ac(a2-3)Gal(b1-4)[Fuc(a1-3)]GlcNAc(b1-3)Gal
How it was run: as §1

[16] = target: Neu5Ac(a2-3)Gal(b1-4)[Fuc(a1-3)]GlcNAc(b1-3)Gal(b1-4)GlcNAc
How it was run: as §1

[17] = target: Neu5Ac(a2-3)Gal(b1-4)[Fuc(a1-3)]GlcNAc(b1-3)Gal(b1-4)[Fuc(a1-3)]GlcNAc(b1-3)Gal(b1-4)[Fuc(a1-3)]GlcNAc
How it was run: as §1

[18] = target: Neu5Ac(a2-3)Gal(b1-4)[Fuc(a1-3)]GlcNAc(b1-3)GalNAc
How it was run: as §1

[19] = target: Neu5Ac(a2-3)Gal(b1-4)[Fuc(a1-3)]GlcNAc(b1-6)[Gal(b1-3)]GalNAc
How it was run: as §1

[20] = target: Neu5Ac(a2-3)Gal(b1-4)[Fuc(a1-3)]GlcNAc(b1-6)[Neu5Ac(a2-3)Gal(b1-3)]GalNAc
How it was run: as §1

[21] = target: Neu5Ac(a2-3)Gal(b1-4)[Fuc(a1-3)]GlcNAc6S
How it was run: as §1

[22] = target: Neu5Ac(a2-3)Gal6S(b1-4)GlcNAc
How it was run: as §1

[23] = target: Neu5Ac(a2-3)Gal6S(b1-4)[Fuc(a1-3)]GlcNAc
How it was run: as §1

Neu5Ac(a2-3)GalNAc = target: Neu5Ac(a2-3)GalNAc
How it was run: as §1

[24] = target: Neu5Ac(a2-3)GalNAc(b1-4)GlcNAc
How it was run: as §1

[25] = target: Neu5Ac(a2-3)[GalNAc(b1-4)]Gal(b1-4)Glc
How it was run: as §1

[26] = target: Neu5Ac(a2-3)[GalNAc(b1-4)]Gal(b1-4)GlcNAc
How it was run: as §1

[27] = target: Neu5Ac(a2-3)[GalNAc(b1-4)]Gal(b1-4)GlcNAc(b1-3)GalNAc
How it was run: as §1

[28] = target: Neu5Ac(a2-3)[Neu5Ac(a2-6)]GalNAc
How it was run: as §1

Neu5Ac(a2-6)Gal = target: Neu5Ac(a2-6)Gal
How it was run: as §1

[29] = target: Neu5Ac(a2-6)Gal(b1-3)GlcNAc(b1-3)[Gal(b1-4)GlcNAc(b1-6)]Gal(b1-4)Glc
How it was run: as §1

Neu5Ac(a2-6)Gal(b1-4)Glc = target: Neu5Ac(a2-6)Gal(b1-4)Glc
How it was run: as §1

[30] = target: Neu5Ac(a2-6)Gal(b1-4)GlcNAc
How it was run: as §1

[31] = target: Neu5Ac(a2-6)Gal(b1-4)GlcNAc(b1-2)Man
How it was run: as §1

[32] = target: Neu5Ac(a2-6)Gal(b1-4)GlcNAc(b1-2)Man(a1-3)Man(b1-4)GlcNAc(b1-4)GlcNAc
How it was run: as §1

[33] = target: Neu5Ac(a2-6)Gal(b1-4)GlcNAc(b1-2)Man(a1-3)[Gal(b1-4)GlcNAc(b1-2)Man(a1-6)]Man(b1-4)GlcNAc(b1-4)GlcNAc
How it was run: as §1

[34] = target: Neu5Ac(a2-6)Gal(b1-4)GlcNAc(b1-2)Man(a1-3)[GlcNAc(b1-2)Man(a1-6)]Man(b1-4)GlcNAc(b1-4)GlcNAc
How it was run: as §1

[35] = target: Neu5Ac(a2-6)Gal(b1-4)GlcNAc(b1-2)Man(a1-3)[GlcNAc(b1-4)][Neu5Ac(a2-6)Gal(b1-4)GlcNAc(b1-2)Man(a1-6)]Man(b1-4)GlcNAc(b1-4)GlcNAc
How it was run: as §1

B1: PX14379D-pdi-530-26-530 (Parabacteroides distasonis) (protein)
chain: DETVYDKLPADDFGQSTAELNALIGNSHNTMKKFWTEYMHLSECSGSMAVTPTRRGGDWYDGGQYREIYMHTWTSQTSRVKSAWKAATEAIGTCNEAIRKLQNSEILTEEEKAQDVADLRGVRAFWIYVMMDYWGNIPLLTEFHPTDKVFPGNSSRQEVFDWLIQEVEEIKDICPPATTENYGSFTQGAAYSLLAKLYLNAEAWGVTFSGNAYQKVIDNCDKVMAMGYILEPNWKDNFSVTNENSKEAILAATFSSSDTGNDGNVKNELHNNTLHYKDYLSLGITASGTWNGICAQPEYVRLFDEEDARLDGTFLTGLMIDKSTGKPIMTDHNNELNHTIDVNMIPGMEYDGTNWSAVEQHDGARCFKWEFASDLTSSMGNDFHIFRLADIYLMKAEALLRGGGSVSEATALVNTIRERGYGNSDHNYATVTLKEVQLERRLELAWEVYSRQDDIRFGCFTTGMWPQSNCERKADDYLKLLPVSQDAWQVNPNLKQNPGYAAFSK
- glycan array binding signal (z-score) [1]: 1.36
- glycan array binding signal (z-score) [2]: 1
- glycan array binding signal (z-score) [3]: -0.455
- glycan array binding signal (z-score) [4]: -0.549
- glycan array binding signal (z-score) [5]: -0.749
- glycan array binding signal (z-score) [6]: 0.466
- glycan array binding signal (z-score) [7]: -0.3
- glycan array binding signal (z-score) [8]: 0.434
- glycan array binding signal (z-score) [9]: -0.342
- glycan array binding signal (z-score) [10]: -0.321
- glycan array binding signal (z-score) [11]: -0.38
- glycan array binding signal (z-score) [12]: -0.163
- glycan array binding signal (z-score) [13]: -0.312
- glycan array binding signal (z-score) [14]: 0.602
- glycan array binding signal (z-score) [15]: -1.4
- glycan array binding signal (z-score) [16]: 1.87
- glycan array binding signal (z-score) [17]: -0.094
- glycan array binding signal (z-score) [18]: 0.974
- glycan array binding signal (z-score) [19]: 0.961
- glycan array binding signal (z-score) [20]: 0.397
- glycan array binding signal (z-score) [21]: -0.739
- glycan array binding signal (z-score) [22]: -1.11
- glycan array binding signal (z-score) [23]: -0.382
- glycan array binding signal (z-score) (Neu5Ac(a2-3)GalNAc): 0.813
- glycan array binding signal (z-score) [24]: -1.02
- glycan array binding signal (z-score) [25]: -1.1
- glycan array binding signal (z-score) [26]: -0.285
- glycan array binding signal (z-score) [27]: 0.45
- glycan array binding signal (z-score) [28]: -1.44
- glycan array binding signal (z-score) (Neu5Ac(a2-6)Gal): -0.05
- glycan array binding signal (z-score) [29]: -0.655
- glycan array binding signal (z-score) (Neu5Ac(a2-6)Gal(b1-4)Glc): 0.207
- glycan array binding signal (z-score) [30]: -0.088
- glycan array binding signal (z-score) [31]: -1.03
- glycan array binding signal (z-score) [32]: 0.147
- glycan array binding signal (z-score) [33]: 0.392
- glycan array binding signal (z-score) [34]: 0.474
- glycan array binding signal (z-score) [35]: 0.549
